Laboratory results taken from the supplement of paper PMC8166895.
Counter-ions that a name gives are not always drawn. This is one part of the list. Most entries show no effect beyond the scatter of the controls.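 Melting temperature was read by differential scanning fluorimetry in a single-replicate pilot screen of a library of approved drugs and clinical or known-target compounds. Compounds raising the melting point by at least 2 °C were the top stabilizing hits, and negative shifts mean destabilization.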

test system: SARS-CoV-2 main protease (Mpro, nsp5); assay: thermal shift ΔTm of Mpro relative to plate average Tm; higher = stronger thermal stabilization of Mpro (binding); conditions: 10 µM; protein concentration 1 µM

SMILES	thermal shift ΔTm of Mpro
CC(=O)/C(C)=N/O [2,3-Butanedione 2-Monoxime]	0.0319 °C
CC(=O)NCCC(=O)O	0.264 °C
O=C(O)CN(CCN(CC(=O)O)CC(=O)O)CCN(CC(=O)O)CC(=O)O [Pentetic Acid]	0.273 °C
CCc1cnn2c(NCc3ccc[n+]([O-])c3)cc(N3CCCC[C@H]3CCO)nc12	-0.137 °C
Cn1c(=O)c2c(ncn2CCO)n(C)c1=O [Etofylline]	0.186 °C
O=C1NC(=O)[C@@H](c2cn3c4c(cccc24)CCC3)[C@@H]1c1c[nH]c2ccccc12 [Tivantinib (ARQ 197)]	-0.0528 °C
CC(=O)Nc1ccc(C(=O)NC(C)(C)C)cc1	-0.0341 °C
C[C@@]1(c2cc(-c3cncnc3)c(F)cc2F)CCSC(N)=N1	-0.108 °C
CCCN1CCN(c2ccc(C(=O)NC3(C(=O)NCC#N)CCCCC3)cc2)CC1 [Balicatib]	-0.0327 °C
C[C@H]1Oc2cc(cnc2N)-c2c(nn(C)c2C#N)CN(C)C(=O)c2ccc(F)cc21	-0.0597 °C
COc1ccccc1N1CCN(CCCNc2cc(=O)n(C)c(=O)n2C)CC1 [Urapidil]	0.178 °C
COc1ccccc1N1CCN(CCCNc2cc(=O)n(C)c(=O)n2C)CC1 [Urapidil HCl]	0.0532 °C
O=C(Nc1cccc(Nc2ncc(Br)c(NCCc3cnc[nH]3)n2)c1)N1CCCC1	0.142 °C
CC(C)(O)CS(=O)(=O)Nc1ccc2c(c1)CCN(C(=O)COc1cccnc1)C2 [Nampt-IN-1]	-0.0369 °C
COc1nc(N)nc2c1ncn2[C@@H]1O[C@H](CO)[C@@H](O)[C@@H]1O [Nelarabine]	0.167 °C
Oc1ccccc1-c1ccc2cccnc2n1	0.0137 °C
CN(C)CCCn1cc(C2=C(c3c[nH]c4ccccc34)C(=O)NC2=O)c2ccccc21	-0.121 °C
Cc1sc2c(c1C)C(c1ccc(Cl)cc1)=N[C@@H](CC(=O)Nc1ccc(O)cc1)c1nnc(C)n1-2	-0.375 °C
OC[C@H]1O[C@@H](n2cnc3c2N=CNC[C@H]3O)C[C@@H]1O [Pentostatin]	-0.00801 °C
CCC(=O)OCC(=O)[C@@]1(OC(=O)CC)[C@@H](C)C[C@H]2[C@@H]3CCC4=CC(=O)C=C[C@]4(C)[C@@]3(Cl)[C@@H](O)C[C@@]21C [Beclomethasone dipropionate]	-0.0739 °C
O=C(O)C(S)=Cc1c[nH]c2ccc(F)cc12	0.585 °C

SMILES	thermal shift ΔTm of Mpro
COc1ccc2[nH]c(C(=O)c3ccccc3)cc2c1	-0.00675 °C
O=C(/C=C/C=C/c1ccc2c(c1)OCO2)N1CCCCC1 [Piperine]	0.0055 °C
C[C@@H]1O[C@@H](OC[C@H]2O[C@@H](Oc3c(-c4ccc(O)cc4)oc4cc(O)cc(O)c4c3=O)[C@H](O)[C@@H](O)[C@@H]2O)[C@H](O)[C@H](O)[C@H]1O [Nicotiflorin]	0.0459 °C
O=c1c2ccccc2nc2n1CCc1c-2[nH]c2ccccc12 [Rutaecarpine]	-0.0239 °C
COc1ccc(C(=O)/C=C/c2cc(OC)c(OC)c(OC)c2)cc1OC	0.015 °C
Cc1cc(C)nc(SCC(=O)Nc2ncc(Cc3cccc4ccccc34)s2)n1	-0.395 °C
CCc1c(C(=O)C(N)=O)c2c(OCC(=O)O)cccc2n1Cc1ccccc1	0.275 °C
CCN(CC)Cc1cc(Nc2ccnc3cc(Cl)ccc23)ccc1O [Amodiaquine hydrochloride]	0.133 °C
CCN(CC)CCNC(=O)COc1ccc(OC)cc1 [Mefexamide hydrochloride]	0.476 °C
Clc1ccc(C(Cn2ccnc2)OCc2csc3c(Cl)cccc23)c(Cl)c1 (stereo not drawn) [Sertaconazole nitrate]	-0.213 °C
C=CCn1c(=O)c2cnc(Nc3ccc(N4CCN(C)CC4)cc3)nc2n1-c1cccc(C(C)(C)O)n1	0.56 °C
CCOc1ccc(NC(=O)CC(C)O)cc1 (stereo not drawn) [Bucetin]	0.00847 °C
O=C(Nc1cccc2cccnc12)c1ccc(N2C(=O)[C@@H]3[C@H](C2=O)[C@@H]2C=C[C@H]3C2)cc1 [IWR-1-endo]	-0.118 °C
CCCCc1nc(Cl)c(CO)n1Cc1ccc(-c2ccccc2-c2nnn[nH]2)cc1 [Losartan]	0.196 °C
CCCCc1nc(Cl)c(CO)n1Cc1ccc(-c2ccccc2-c2nnn[nH]2)cc1 [Losartan Potassium (DuP 753)]	0.589 °C
CC1(C)S[C@@H]2[C@H](NC(=O)Cc3ccccc3)C(=O)N2[C@H]1C(=O)O [Penicillin G Sodium]	0.0179 °C
O=C1CCC(N2C(=O)c3ccccc3C2=O)C(=O)N1 (stereo not drawn) [Thalidomide]	0.167 °C
C[C@H](CCC(=O)NCCS(=O)(=O)O)[C@H]1CC[C@H]2[C@@H]3[C@@H](O)C[C@@H]4C[C@H](O)CC[C@]4(C)[C@H]3CC[C@]12C [Sodium Tauroursodeoxycholate (TUDC)]	-0.17 °C
c1cn2cc(-c3ccc4cn[nH]c4c3)nc(Nc3ccc(N4CCOCC4)cc3)c2n1	0.0243 °C
CN1CCN(c2ccc(N3C[C@H](CO)OC3=O)cc2F)C=N1 [Delpazolid]	0.0148 °C
CCCCC(C#N)(Cn1cncn1)c1ccc(Cl)cc1 (stereo not drawn) [Myclobutanil]	-0.0273 °C

Four entries from above in another layout.
CCc1c(C(=O)C(N)=O)c2c(OCC(=O)O)cccc2n1Cc1ccccc1
  thermal shift ΔTm of Mpro: 0.275 °C
CCN(CC)Cc1cc(Nc2ccnc3cc(Cl)ccc23)ccc1O [Amodiaquine hydrochloride]
  thermal shift ΔTm of Mpro: 0.133 °C
CCN(CC)CCNC(=O)COc1ccc(OC)cc1 [Mefexamide hydrochloride]
  thermal shift ΔTm of Mpro: 0.476 °C
Clc1ccc(C(Cn2ccnc2)OCc2csc3c(Cl)cccc23)c(Cl)c1 (stereo not drawn) [Sertaconazole nitrate]
  thermal shift ΔTm of Mpro: -0.213 °C

(list continues)

SMILES	thermal shift ΔTm of Mpro
CC[n+]1c(-c2ccccc2)c2cc(N)ccc2c2ccc(N)cc21 [Ethidium bromide]	-0.102 °C
O=C1OC(CN2CCOCC2)CN1/N=C/c1ccc([N+](=O)[O-])o1 (stereo not drawn) [Furaltadone HCl]	-0.107 °C
O=C(CNc1ccc2ccccc2c1)N/N=C/c1cc(Br)c(O)c(Br)c1O	0.277 °C
O=C1c2c(O)cc(O)cc2O[C@H](c2cc(O)c(O)c(O)c2)[C@H]1O [Dihydromyricetin]	0.988 °C
Cc1ccsc1C(=CCCN1CCC[C@@H](C(=O)O)C1)c1sccc1C [Tiagabine]	0.243 °C
Cc1ccc(-c2c(-c3nn(C)c4ncnc(N5CC[C@H](N6CCCCC6)C5)c34)cnn2C)cc1	0.112 °C
Cc1cc(C)c(CNC(=O)c2cc(-c3ccc(N4CCN(C)CC4)nc3)cc3c2c(C)cn3C(C)C)c(=O)[nH]1	-0.115 °C
CC(C)(C(=O)NCC(F)(F)C(F)(F)F)C(=O)N[C@@H]1C(=O)Nc2ccccc2-c2ccccc21	-0.0655 °C
CN(C)CCNC(=O)c1cccn2c(=O)c3cc4ccccc4cc3nc12	0.025 °C
C[n+]1ccccc1/C=N/O [2-Pyridinealdoxime methochloride]	0.32 °C
Cc1cccc(Nc2ccccc2C(=O)O)c1C [Mefenamic Acid]	0.232 °C
CCC(C)n1ncn(-c2ccc(N3CCN(c4ccc(OCC5COC(Cn6cncn6)(c6ccc(Cl)cc6Cl)O5)cc4)CC3)cc2)c1=O (stereo not drawn) [Itraconazole]	-0.261 °C
CCOc1cc(N)c(Cl)cc1C(=O)NCC1CN(Cc2ccc(F)cc2)CCO1 (stereo not drawn) [Mosapride Citrate]	0.0567 °C
COC(=O)[C@H](CCSC)NC(=O)c1ccc(NC[C@@H](N)CS)cc1-c1ccccc1	0.0247 °C
Cc1c(CN2CCN(c3cccc(C(F)(F)F)c3)CC2)cc(-c2ccccc2)n1NC(=O)c1ccncc1 [Sudoterb free base]	-0.0874 °C
COc1ccc2[nH]cc(C3=CCNCC3)c2c1	0.22 °C
CC(C)Nc1nc2cc(Cl)c(Cl)cc2n1[C@H]1O[C@@H](CO)[C@H](O)[C@@H]1O [Maribavir]	-0.00173 °C
C[C@H]1[C@H](OC(=O)CCC(=O)O)O[C@@H]2O[C@@]3(C)CC[C@H]4[C@H](C)CC[C@@H]1[C@@]24OO3 [Artesunate]	0.0631 °C
CN(C)C(=O)Oc1cccc([N+](C)(C)C)c1 [Hodostin]	0.404 °C
CCOC(=O)[C@H](CCc1ccccc1)N[C@@H](C)C(=O)N1Cc2cc(OC)c(OC)cc2C[C@H]1C(=O)O [Moexipril HCl]	0.11 °C
COc1cc(/C=C/C(=O)NCCn2c(C(F)(F)F)cc3ccccc32)cc(OC)c1OC	0.0888 °C

SMILES	thermal shift ΔTm of Mpro
CN1CCC(OC(c2ccccc2)c2ccccc2)CC1 [Diphenylpyraline hydrochloride]	0.156 °C
C[N+](C)(C)CCO.[Cl-] [Choline Chloride]	-0.0381 °C
CN1CCN(C2CCN(C(=O)Nc3cc(Oc4ccc(NC(=O)C5(C(=O)Nc6ccc(F)cc6)CC5)c(F)c4)ccn3)CC2)CC1 [Golvatinib (E7050)]	0.0226 °C
O=c1[nH]cnc2[nH]ncc12 [Allopurinol Sodium]	0.059 °C
O=C1NC(=O)/C(=C/c2cccc(C(F)(F)F)c2)S1	0.174 °C
Cc1cc(O)c2c(c1)C(=O)c1cc(O)cc(O)c1C2=O [Emodin]	0.304 °C
Clc1ccc(Nc2nnc(Cc3ccncc3)c3ccccc23)cc1 [Vatalanib (PTK787) 2HCl]	0.242 °C
Cn1cc(-c2ccc3nnc(Sc4ccc5ncccc5c4)n3n2)cn1	0.173 °C
COC(=O)c1ccc2c(C(=Nc3ccc(N(C)C(=O)CN4CCN(C)CC4)cc3)c3ccccc3)c(O)[nH]c2c1 [Nintedanib (BIBF 1120)]	-0.262 °C
CN1CCN(c2ccc(OC(F)(F)F)c(Nc3ncc4c(n3)-c3c(c(C(N)=O)nn3CCO)CC4)c2)CC1	-0.0527 °C
CN(C/C=C/C#CC(C)(C)C)Cc1cccc2ccccc12 [Terbinafine]	-0.132 °C
CN(C/C=C/C#CC(C)(C)C)Cc1cccc2ccccc12 [Terbinafine HCl]	0.0336 °C
O=c1[nH]cnc2c1ncn2[C@H]1CC[C@@H](CO)O1 [Didanosine]	-0.138 °C
Cn1c(O)c(C2=c3ccccc3=NC2=O)c2ccccc21 [Methylisoindigotin]	0.101 °C
Nc1ccc(S(=O)(=O)NCCc2ccccc2)cc1	0.158 °C
Fc1ccc([C@@H]2CCNC[C@H]2COc2ccc3c(c2)OCO3)cc1 [Paroxetine HCl]	-0.0125 °C
Nc1nc(O)c2ncn(CCC(CO)CO)c2n1 [Penciclovir]	-0.0277 °C
NC(CO)C(=O)NNCc1ccc(O)c(O)c1O (stereo not drawn) [Benserazide HCl]	0.713 °C
C[C@H]1COc2c(N3CCN(C)CC3)c(F)cc3c(=O)c(C(=O)O)cn1c23 [Levofloxacin]	0.236 °C
C[C@H]1COc2c(N3CCN(C)CC3)c(F)cc3c(=O)c(C(=O)O)cn1c23 [Levofloxacin Hemihydrate]	0.207 °C
